Measured values as given in US7196112B2, “Cell adhesion inhibitors” (Biogen Idec MA Inc., priority 2004, dated 2007).
Some of these results come from one statement about several compounds together.

Test system: EAE
Test: Rat EAE model induced with myelin basic protein peptide
Format: in vivo
Conditions: daily 30 mg/kg s.c.

Cc1ccccc1NC(=O)Nc1ccc(CC(=O)N(C)[C@@H](CC(C)C)C(=O)NCC[C@H](NC(=O)[C@@H]2CCCN2S(=O)(=O)c2cc(Cl)cc(Cl)c2)C(=O)O)cc1 [Compound R, 2S-{[1-(3,5-dichloro-benzenesulfonyl)-pyrrolidine-2S-carbonyl]-amino}-4-[4-methyl-2S-(methyl-{2-[4-(3-o-tolyl-ureido)-phenyl]-acetyl}-amino)-pentanoylamino]-butyric acid]
shift in onset of the disease: 2 to 3 days
